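Viability assay of Plasmodium falciparum sporozoites; the read-out is not stated. The concentration is filed as 10 mM, unlikely as a test dose, so the dose is not known. The record gives no direction; compounds that gave an IC50 in retests scored well above the rest, so higher reads as lower viability. Strong results were mostly tested again. About 34,000 compounds were tested under these conditions; 0.84% (about 280) showed 50% or more at least once.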

Each number is a percent effect as filed.
The controls that fix the scale are not given in the record; negative values are as filed.
This is an unselected part of the compounds tested.
Two or more numbers in one place are separate tests of the same structure; such repeats can differ widely.

| Compound | percent effect |
|---|---|
| `[H][C@@]12CCN(Cc3ccc4c(c3)OCO4)C[C@@]1([H])O[C@@H](c1noc(C)n1)C2` | 7.922% |
| `CCn1cnnc1CNC(=O)N1CCC(C(=O)NC)CC1` | -18.38% |
| `COc1ccccc1CN1CC(OC)CN(C(=O)CC(C)C)CC1=O` (stereo unspecified) | 7.56% |
| `c1cnn(CCN2CCOC(Cn3cccn3)C2)c1` (stereo unspecified) | 3.984% |
| `CC(=O)N1N=C(COc2ccc3c(c2)OCO3)OC1c1cccc(Cl)c1` (stereo unspecified) | -6.085% |
| `Cc1nc(CCCNC(=O)C2CC(=O)N(C(C)(C)C)C2)sc1C` (stereo unspecified) | -6.829% |
| `O=C(O)C(F)(F)F.O=C(O)C(F)(F)F.O=C(O)C(F)(F)F.O=C1NC2(CCN(Cc3cccnc3)CC2)CC1c1cccnc1` (stereo unspecified) | -10.22% |
| `Cl.Fc1cccc(CN2CCC(c3cc4ncccc4cn3)CC2)c1F` | 0.8312% & 2.173% & 11.55% |
| `Cc1c(C(=O)NCCCS(C)(=O)=O)cccc1-c1ccccn1` | -1.791% |
| `CNS(=O)(=O)c1ccc(CNC(=O)c2cccc(C)n2)cc1` | 11.06% |
| `O=C(O)C(F)(F)F.[H][C@@]12CCCO[C@]1([H])[C@H](N(C)Cc1ccco1)CN(C(=O)N(C)C)C2` | -10.38% |
| `COc1cc(N2CCC3(CC2)CC(N2CCOCC2)C3)ncn1.O=C(O)C(F)(F)F` | 6.159% |
| `Cc1ncc2c(n1)C1(CCN(C(=O)C(C)C)CC1)OCC2.Cl` | 8.613% |
| `NC(=O)c1nnn(-c2ccc(Cl)cc2)n1` | 3.85% |
| `c1ncc(Nc2nccc(C3CCCCN3CC3CCCCC3)n2)cn1` (stereo unspecified) | -3.806% |
| `O=C1C(NCc2nnc3n2CCCC3)CCN1c1ccccc1Cl` (stereo unspecified) | 8.162% |
| `CC(C)S(=O)(=O)N1CCC(c2[nH]ncc2S(C)(=O)=O)C1` (stereo unspecified) | 12.55% |
| `CC1CCCN(C(=O)c2ncncc2Cl)C1` (stereo unspecified) | -4.561% |
| `CN(C)C(=O)c1cnc2n1CCN(Cc1ccsc1)C2.O=C(O)C(F)(F)F` | -0.4296% |
| `COCCNC(=O)c1ccc(NCc2c(C)noc2C)cc1Cl` | -8.333% |
| `CCN1C(=O)CCCC12CCCN(C(=O)c1sccc1C)C2` (stereo unspecified) | 8.144% |
| `COc1ccccc1C(=O)N1CCC(Nc2ccc(C)nn2)CC1` | 6.258% |
| `Cc1noc2ncc(C(=O)NCC3CCN(C(C)C)C3)cc12` (stereo unspecified) | 4.122% |
| `Cc1nn(C)c(C)c1C1CCCN1C(=O)c1nccnc1N` (stereo unspecified) | 7.423% |
| `O=C(O)C(F)(F)F.[H][C@@]12CCN(c3nncs3)C[C@@]1([H])O[C@@H](C(=O)NCc1ccco1)C2` | -0.08772% |
| `CCc1ncc(CN2CCN(CCOC)CC2)cn1` | 15.26% |
| `CCc1n[nH]c(C2CN(C(=O)c3ccc(NC4CC4)nc3)CCO2)n1` (stereo unspecified) | -18.67% |
| `O=C(COCc1ccccc1)N1CCCn2cncc2C1` | -30.92% |
| `CCc1ccccc1NC(=O)NCc1nnc(SC)n1C` | -3.691% |
| `Cc1cncc(C2CCN(Cc3ccsc3)CC2)n1` | 7.093% |
| `Cc1nc(C)n(CC2CCCN2Cc2nc3ccccc3o2)n1` (stereo unspecified) | -3.163% |
| `O=C(CCCc1nnc(-c2ccccc2)o1)N1CCN(C2CC2)CC1` | 16.07% |
| `[H][C@@]12CN(Cc3ccccc3)CC[C@]1([H])N(C(C)=O)C[C@H]2c1ccsc1` | -20.02% |
| `CN(c1ccncn1)C1CC2(CCN(C(=O)c3cncs3)C2)C1` (stereo unspecified) | 4.184% |
| `COCC(=O)N1CCC2(CC1)CN(S(C)(=O)=O)Cc1ccccc1O2` | -1.283% |
| `CCCc1nc(C(C)(C)NC(=O)C2CC(=O)N(CC)C2)no1` (stereo unspecified) | 18.41% |
| `Cc1ccccc1COCCOCn1c(C)cc(=O)[nH]c1=O` | 3.938% |
| `COc1cc(NC(=O)c2ccc(Cl)cc2F)c(C(=O)N(C)C)cc1OC` | -2.206% |
| `O=C(O)C(F)(F)F.[H][C@@]12COC[C@]1([H])[C@H](NC(=O)c1cscn1)CN2c1ncc(CC)cn1` | 9.414% |
| `Cc1csc2c(N3CCC(NCCCC4CCOC4)CC3)ncnc12` (stereo unspecified) | 2.368% |
| `Cc1noc(CNC(=O)c2ccccc2-n2cc(CN)cn2)n1` | 5.327% |
| `Cn1ccnc1SCc1nc(C(C)(C)NC(=O)OC(C)(C)C)no1` | 5.794% |
| `O=C(CSC1CCc2ccccc2NC1=O)NCCO` (stereo unspecified) | 0.7277% |
| `Clc1ccc(NCc2nnc(C3CC3)o2)cc1Cl` | -8.526% |
| `CC(O)CN1CCN(C(=O)c2sccc2C2CC2)CC1` (stereo unspecified) | 6.393% |
| `CSc1ccc(C(=O)N2CCOCC2c2c(C)nn(C)c2C)o1` (stereo unspecified) | 5.762% |
| `CNC(=O)c1cc2c(nc1N(C)C)CCN(c1ncccn1)CC2.O=C(O)C(F)(F)F` | -3.713% |
| `NC(=O)C1CCN(CCCNC(=O)Nc2nncs2)CC1` | -5.372% |
| `COc1ccc(C(C(=O)O)N2CCN(C3CCCCC3)CC2)cc1OC` (stereo unspecified) | 18.34% |
| `COc1ccc(C(=O)Nc2c(C)nc3cccc(C)n3c2=O)cc1` | -4.995% |
| `Cn1cc(C2CCCN2C(=O)c2ccc(Br)o2)cn1` (stereo unspecified) | 1.874% |
| `COc1ccccc1-c1cc(C(F)(F)F)c2c(C)nn(CC(=O)O)c2n1` | -4.24% |
| `CC(=O)N1CCCN(C(=O)NCCNc2cnccn2)CC1` | -1.848% |
| `O=C(Cn1ccc2sccc2c1=O)NCc1ccc2c(c1)OCO2` | -6.592% |
| `N#Cc1ccc(C(=O)N2CCCSCC2CN2CCCC2)cc1` (stereo unspecified) | 9.937% |
| `CNc1nccc(-c2cn(C)nc2C)n1` | 4.079% |
| `CC(C)n1ccnc1CN1CCCN(C(=O)c2cnn(C)c2)CC1` | 5.764% |
| `Cc1ccc(-c2nc(CN3CCc4nn(C)c(=O)cc4C3)co2)cc1` | -0.96% |
| `Cc1nc(C)n(CC2CCCN2Cc2nc3ccccc3c(=O)[nH]2)n1` (stereo unspecified) | 14.87% |
| `O=C(CC1CCCC1)NCCn1ccc(-c2ccccn2)n1` | -9.721% |
| `COCCN(C)C1COC2(CCN(Cc3cccc(F)c3)CC2)C1.O=C(O)C(F)(F)F.O=C(O)C(F)(F)F` (stereo unspecified) | 6.569% |
| `O=C(O)C(F)(F)F.[H][C@@]12CN(C(=O)Cc3cccs3)C[C@]1([H])OCCN2CC1CCCO1` (stereo partly specified) | -7.764% |
| `CN1CC2(CCN(CC3CC3)CC2)COc2ccccc2S1(=O)=O.O=C(O)C(F)(F)F` | 2.719% |
| `Cc1ncnc2c1CCN(c1cc(C(F)(F)F)ncn1)CC2` | 0.3247% |
| `NC(=O)C1CCN(C(=O)NCCOc2ccc3c(c2)OCO3)C1` (stereo unspecified) | -4.398% |
| `CC(=O)N1N=C(c2ccncc2)OC1C(=O)N(C)CCc1ccccc1` (stereo unspecified) | -28.41% |
| `Cc1cc(C)cc(-c2cccc(CC3(C(=O)O)CCOCC3)c2)c1` | 10.55% |
| `Cl.[H][C@@]12NCCCCC[C@@]1([H])N(S(=O)(=O)N1CCCC1)C[C@H]2c1cccc(F)c1` | 10.21% |
| `COc1ccc(CC(=O)N2CCCC2c2nc(C)c(C)c(O)n2)cc1` (stereo unspecified) | -5.337% |
| `CCOCC1CN(C(=O)c2cscn2)Cc2nnn(CC3CC3)c21` (stereo unspecified) | -14.17% |
| `CN(Cc1cccc(C(N)=O)c1)Cc1nc2c(cnn2C)c(=O)[nH]1` | -0.9874% |
| `COC(=O)c1cc(C(=O)N2CCCCCC2)n(-c2ccccc2)n1` | -3.792% |
| `CN(C(=O)c1ccc(Cl)cc1)C1CCN(c2ccccn2)CC1` | -3.163% |
| `Cc1ccc(CNC(C)c2ccc(OCC(=O)NC3CC3)cc2)o1` (stereo unspecified) | 8.21% |
| `CN1CCC(c2cccc(CCC(=O)NCC(N)=O)n2)CC1` | 4.122% |
| `[H][C@@]12CCN(C3CCC3)C[C@]1([H])OCCN(Cc1ccncc1)C2=O` | -5.506% |
| `NC(=O)CC1CCN(C(=O)NCc2ccccc2-n2cccn2)CC1` | -4.902% |
| `Cc1cccc(CNC(=O)CC2CCN(S(C)(=O)=O)CC2)n1` | 0.03218% |
| `CCn1cnnc1C1CCN(C(=O)c2cc3c(s2)CCC3)CC1` | 12.75% |
| `CN(C)CCN1CCN(Cc2cccc(C#N)c2)Cc2cccnc21.O=C(O)C(F)(F)F.O=C(O)C(F)(F)F.O=C(O)C(F)(F)F` | 10.09% |
| `c1cncc(COCC2CN(Cc3ccco3)Cc3ccnn3C2)c1` (stereo unspecified) | -10.61% |
| `Cc1cnn(CCCNC(=O)N2CCCCC(N3CCCC3)C2)c1` (stereo unspecified) | 8.739% |
| `CN(C)Cc1csc(-c2nccn2Cc2ccc(C(=O)O)cc2)c1` | -6.312% |
| `CCc1n[nH]c(C2CN(C(=O)c3ccnc(N(C)C)c3)CCO2)n1` (stereo unspecified) | 5.34% |
| `[H][C@@]12CNC[C@]1([H])N(C(=O)c1ccco1)CCO2` | -11.73% |
| `CC(C)(C)c1cc2ncn(CCCN3CCCCC3CO)c(=O)c2s1` (stereo unspecified) | -12.55% |
| `Cc1ccc(Cl)cc1N1CCC(CNC(=O)CC(F)(F)F)C1` (stereo unspecified) | -23.03% |
| `Cc1nc(CN2CCCN(C(=O)c3cnccn3)CC2)cs1` | -5.451% |
| `CCOc1cccc(CN2CCCn3nc(CNS(C)(=O)=O)cc3C2)c1` | 23.7% |
| `CC(C)n1c(=O)c2ccccc2n(CCCN(C)C)c1=O.Cl` | -5.952% |
| `COCCO[C@H]1CCN(C(=O)c2ccno2)[C@H]1Cc1ccncc1.O=C(O)C(F)(F)F` | -7.899% |
| `Cc1cnn(CC2CCCN2C(=O)Cc2c(C)nc(C)[nH]c2=O)c1` (stereo unspecified) | 2.692% |
| `Cc1ccc2c(c1)C1(CC(=O)Nc3[nH]ncc31)C(=O)N2C` (stereo unspecified) | -2.634% |
| `Cc1ccc(CN2CCC3(CCCN(Cc4ccc(F)c(F)c4)C3)C2)o1` (stereo unspecified) | -11.48% |
| `CCC[C@@H]1CN(c2cncc(C(=O)N3CCOCC3)n2)C[C@H]1N(C)C` | 11.51% |
| `COc1ncc(-c2nccn2-c2ccccc2CN2CCOCC2)cn1` | -2.842% |
| `CCOc1ncccc1C(=O)N1CCCC1Cn1cc(C)cn1` (stereo unspecified) | 6.256% |
| `O=C(O)C(F)(F)F.[H][C@@]12CN(c3ccc(C)nn3)C[C@H](C(=O)NCC3CC3)[C@]1([H])CCO2` | -4.545% |
| `CS(=O)(=O)c1cn[nH]c1C1CCCCN1C(=O)c1ccsc1` (stereo unspecified) | 4.963% |
| `CCOc1ccc(CC(CNC(=O)c2ccc(C)s2)C(N)=O)cc1` (stereo unspecified) | 16.05% |
| `Cc1cc(CN(C)C(=O)NC2CCC(O)CC2)no1` (stereo unspecified) | -3.567% |
| `CCNc1cc2c(nn1)CCN(C(=O)CC1CCCC1)C2` | 2.728% |
| `Cc1ccccc1C1(C(=O)NCCN2CCOCC2)CCOCC1` | 6.545% |
| `O=C(C1CCOCC1)N1CCC2(CC1)CC(Oc1ccccc1)CO2` (stereo unspecified) | -3.274% |

Repeated from the top, 7 entries:

- [H][C@@]12CCN(Cc3ccc4c(c3)OCO4)C[C@@]1([H])O[C@@H](c1noc(C)n1)C2 | 7.922%
- CCn1cnnc1CNC(=O)N1CCC(C(=O)NC)CC1 | -18.38%
- COc1ccccc1CN1CC(OC)CN(C(=O)CC(C)C)CC1=O (stereo unspecified) | 7.56%
- c1cnn(CCN2CCOC(Cn3cccn3)C2)c1 (stereo unspecified) | 3.984%
- CC(=O)N1N=C(COc2ccc3c(c2)OCO3)OC1c1cccc(Cl)c1 (stereo unspecified) | -6.085%
- Cc1nc(CCCNC(=O)C2CC(=O)N(C(C)(C)C)C2)sc1C (stereo unspecified) | -6.829%
- O=C(O)C(F)(F)F.O=C(O)C(F)(F)F.O=C(O)C(F)(F)F.O=C1NC2(CCN(Cc3cccnc3)CC2)CC1c1cccnc1 (stereo unspecified) | -10.22%

The values are deposited in ChEMBL (CHEMBL3988442, “University of Dundee, Small-Polar-MMV Screening Library” (2021)).